Results are given in words; binding and its absence hold for the method and conditions named.
Experiments:
Assay in all cases: SEC; size-exclusion chromatography of the purified soluble LBDs, each run alone; column and buffer not told (Supplementary Fig. S8); both purified
[1] = target: wild-type GluN1 ligand-binding domain (GluN1-LBD), soluble S1-GT-S2 construct (UniProt P35439)
[2] = target: wild-type rat GluD2 ligand-binding domain (GluD2-LBD), soluble S1-GT-S2 construct (rat) (UniProt Q63226)
[3] = target: GluD2-LBD-(H)GluN1, GluD2 ligand-binding domain with the D1-D2 hinge region (HS1 and HS2) of GluN1 (rat) (UniProt Q63226)

“wild-type GluN1 ligand-binding domain (GluN1-LBD), soluble S1-GT-S2 construct (from UniProt P35439 394-544; P35439 663-800) (domain or fragment)” was tested, and the binding [1] was “no binding”.

B1: wild-type rat GluD2 ligand-binding domain (GluD2-LBD), soluble S1-GT-S2 construct (domain or fragment, UniProt Q63226 440-551; Q63226 664-813)
chain: GGVVLRVVTVLEEPFVMVSENVLGKPKKYQGFSIDVLDALSNYLGFNYEIYVAPDHKYGSPQEDGTWNGLVGELVFKRADIGISALTITPDRENVVDFTTRYMDYSVGVLLRRGTSIQSLQDLSKQTDIPYGTVLDSAVYQHVRMKGLNPFERDSMYSQMWRMINRSNGSENNVLESQAGIQKVKYGNYAFVWDAAVLEYVAINDPDCSFYTVGNTVADRGYGIALQHGSPYRDVFSQRILELQQSGDMDILKHKWWPKNGQCDL
B1 was tested, and the binding [2] was “no binding”.

B2: GluD2-LBD-(H)GluN1, GluD2 ligand-binding domain with the D1-D2 hinge region (HS1 and HS2) of GluN1 (domain or fragment, UniProt Q63226 440-551; Q63226 664-813)
chain: GGVVLRVVTVLEEPFVMVSENVLGKPKKYQGFSIDVLDALSNYLGFNYEIYVAPDHKYGSPQEDGTWNGLVGELVFKRADIGISALTITPDRENVVDFTTRYMYQGVGVLLRRGTSIQSLQDLSKQTDIPYGTVLDSAVYQHVRMKGLNPFERDSMYSQMWRMINRSNGSENNVLESQAGIQKVKYGNYAFVWDAAVLEYVAINDPDCSFYTTGELFFRSGYGIALQHGSPYRDVFSQRILELQQSGDMDILKHKWWPKNGQCDL
B2 was tested, and the binding [3] was “no binding”.
